# The whole screen tested about 31,000 sequences, of which about 1,400 (4.5%) were called active.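 The calls were made as follows: active = median seed-adjusted z-score above 1 or below -1; inactive = the rest.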 The list shows a part of the results.
# Assay: Novel Modifiers of Survival Motor Neuron (SMN) Protein: Gene Identification via Genome-wide siRNA Screen;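 also: luminescence tracks full-length SMN protein made from the SMN2 reporter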
# Details: HEK293T SMN2-luciferase reporter, siRNA knockdown, 72 h; actives lie on both sides
# Procedure, shortened: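 Steps: spot 1 pmol siRNA, add Lipofectamine RNAiMax in serum-free DMEM, seed HEK293T SMN2–luciferase reporter cells; incubate 72 h at 37 °C; add ONE-Glo; normalize luminescence to control siRNA, log10, MAD. Candidates: |MAD| > 1.0.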
row,Sequence,median seed-adjusted z-score
1,GGCUUUCCUUGGAGUGAAATT against EZR,inactive: 0.0344
2,CCAUUAGACGGAUUGGACUTT against GYS2,inactive: 0.0101
3,GCAGAAUUCUCCUACCAAATT against ENTPD3,inactive: -0.28
4,CCUUCAUCGAGUUCCGGAATT against PMM1,inactive: -0.597
5,CUCUCCAAAUUUUACCCAATT against MS4A6A,inactive: 0.174
6,GCUCAACUCUCAUUCGGCATT against ZNF550,inactive: 0.131
7,ACCUGAUGGUGGGCGCAAATT against MYBPC3,inactive: 0.304
8,GGUAGUAGUUCCCAAGUUATT against ATP6V1C1,inactive: 0.0821
9,CCACAGAAAUUAGAGGUUATT against TRIM40,inactive: 0.108
10,GUGUGGACUUGGAACAAUATT against THUMPD2,inactive: -0.129
11,GGAUCAUGCAGGACUUUGATT against DHFRL1,inactive: -0.646
12,GGAGGUCAUUAAAACACCATT against HADH,active: 1.11
13,GUAUUGUAGGCACAACAUATT against ADAM20,inactive: 0.0167
14,GAGCUUUGAGGAGACUGUATT against SLC1A6,inactive: 0.0455
15,GGGACUAUUCCAAAACCCATT against FLAD1,inactive: 0.367
16,CCAGGCUAUUUGUACCGAUTT against CCR6,inactive: 0.103
17,CGCUUAUCCAGGCAGCUAATT against CTNNA2,inactive: -0.0686
18,GGGACAUCCUUUCCGGAAATT against NDUFS3,inactive: -0.54
19,GCUGAGUCAUGAGAUCAGATT against MYOM3,inactive: -0.012
20,CAAUUUCUCUUGAUAUUAATT against ATP5L,inactive: -0.295
21,GUAACUCUGUUGUAACAAUTT against CALCRL,inactive: 0.28
22,GCAAUUAUGCGAUAUGGUATT against CHD4,inactive: 0.625

# Rewritten with tabs: part of the list above.
row	Sequence	median seed-adjusted z-score
4	CCUUCAUCGAGUUCCGGAATT against PMM1	inactive: -0.597
5	CUCUCCAAAUUUUACCCAATT against MS4A6A	inactive: 0.174
6	GCUCAACUCUCAUUCGGCATT against ZNF550	inactive: 0.131
7	ACCUGAUGGUGGGCGCAAATT against MYBPC3	inactive: 0.304
8	GGUAGUAGUUCCCAAGUUATT against ATP6V1C1	inactive: 0.0821
9	CCACAGAAAUUAGAGGUUATT against TRIM40	inactive: 0.108
10	GUGUGGACUUGGAACAAUATT against THUMPD2	inactive: -0.129

# (continued)

row,Sequence,median seed-adjusted z-score
1,GGCUGGAUCUGCUACUGGATT against SPSB1,inactive: -0.378
2,CCUUCGAUGUCACUCGAAATT against CNOT4,inactive: -0.116
3,CCAGAAUAGUGUUCGGGAATT against CTPS,inactive: 0.0943
4,CCAAGCGUGUCAUCAAUAATT against PAX6,inactive: -0.275
5,CGCUAUGACAACUACAAAATT against SPPL3,inactive: 0.652
6,GGUUUGGAGUGGAAGUCGATT against ABCB6,inactive: -0.359
7,CAACACCAGUCCCACCAGATT against ZNF574,inactive: -0.528
8,AGCUAAUUGUGAUCAACGATT against ADAM11,inactive: 0.102
9,CCAUGGAGGUCCGCAUUAATT against UNC5A,inactive: 0.517
10,GGGAAGUGGUAAAUAAAGATT against MCM7,inactive: 0.0993
11,CUAAAGAGGUCAACAUUGATT against RGS16,inactive: 0
12,ACACCCGCGUGUCUGAUUATT against PPAP2C,active: -1.12
13,GCCUCAGUUUCGCAUCAAATT against PLAT,inactive: 0.246
14,AGAGGGACGCGUACAAGGATT against MAF,inactive: -0.418
15,GCUCCCUGCUCACUUUUCATT against INHBE,inactive: 0.172
16,CUACCGUAACAACCGAAAATT against SCN10A,inactive: -0.401
17,CAAGUGGAAUUUCGAUUUUTT against CDKN1B,inactive: 0.244
18,GCCUACAACUUGAUAAGAATT against PIK3C2A,inactive: 0.0177
19,GACUGGGUCUGGUAAAACATT against DHX15,active: 1.36
20,CACCUGAAGUAAAUCGGAUTT against SF3B14,active: -1.26
21,GCUAACUACCAAGUCCUAATT against SLC8A1,inactive: 0.221
22,GCACGAUGUAUACAGCUUUTT against RIPK4,inactive: 0.188

# Some of the entries above, set out differently:
row	Sequence	median seed-adjusted z-score
13	GUAUUGUAGGCACAACAUATT against ADAM20	inactive: 0.0167
14	GAGCUUUGAGGAGACUGUATT against SLC1A6	inactive: 0.0455

# (listing goes on)

row,Sequence,median seed-adjusted z-score
1,AGUACAUCGUGUCCUGUAATT against ACOT11,inactive: 0.636
2,CUGGGUAUCUGGUACAUCATT against GPI,inactive: -0.122
3,GGUAAAAUCAAGUACCAUATT against TIGD2,inactive: -0.13
4,GAAGUGGACUAAAGUAUUATT against DUSP23,inactive: -0.537
5,GCACUUACGAGUCCAUCGATT against ZNF507,inactive: -0.262
6,GAACCUCUCUGAAACUGCUTT against PBLD,inactive: -0.0809
7,GGGCUGCAACAUUCGCACATT against PLA2G5,inactive: 0.0601
8,GCAACUCCUGCAUUACUUATT against PIP5K1A,inactive: 0.0924
9,AACCAGUCCUUAACUCUUATT against ZNF273,inactive: 0.0489
10,AGAUAUUCCGGAAGCAGGATT against PNMA2,inactive: 0.629
11,GGAAAUCGUUCAGUAAGAATT against ZNF175,inactive: -0.0194
12,GAUCUUUGAAGAUCAGCUATT against IFIT1L,inactive: 0.166
13,CCAGCAUUCCUACUCCUCATT against TFDP3,inactive: -0.135
14,AGACCUUCCGCGACACGUATT against CHST1,inactive: 0.181
15,GGGUGAUCUUGAUACUGCATT against TOP2B,inactive: 0.225
16,GAUACUUUGCCGUCAAUUATT against CA5B,inactive: 0.317
17,GCUGUAUCAAUGACCCUUATT against CLCN6,inactive: -0.136
18,GCGACUAAGGAAAAACUCATT against PDCD4,inactive: -0.0842
19,CGAAGGAAAUGUACAGCAATT against SLC25A42,active: -1.02
20,CAUUCAAAGAAGAAUUGGATT against HNRPA1P4,inactive: -0.906
21,GCAUGCAUCUUAUUGUACATT against ZFP2,inactive: 0
22,GCCUAUUUAGUGCUAAUGATT against ZRANB2,inactive: 0.441

row,Sequence,median seed-adjusted z-score
1,CUGUUGGACCGGUACACUUTT against ZNF692,inactive: 0.556
2,CAACGGCUCUUAGACCACATT against SPRY4,active: -1.23
3,GUCUUAGAACCUCAACUGATT against NQO1,inactive: 0
4,GAGUCUCAGCAGUCCAAUUTT against AFF4,inactive: -0.0637
5,CAACAACUAUGACCCAGGATT against CHRNE,inactive: 0.349
6,UCCGCACGCUGAGCACUUUTT against RBP1,inactive: 0.321
7,GUCGUGAUUUGGAGUAUUATT against AP1M2,inactive: 0.0641
8,GCUUAUGGAUGGAGACCAATT against RNF34,inactive: -0.0857
9,GACUUAAGCGAAUAGCUAATT against UTP11L,inactive: -0.755
10,GCGAGAACGAUGCCGAGUUTT against TRIM15,inactive: 0.292
11,GGUGGUUGCUGUAUAUGGATT against KCTD9,active: 1.31
12,UGCCCUUUAAGAUAGCUUATT against F2RL2,inactive: -0.216
13,CCGAAUUGAUGGGAUAUGATT against HIF1A,inactive: 0.228
14,CGACUUCAUCAGAUCCAGATT against SPIRE1,inactive: 0.336
15,CGGGUAUUGUGGGACUGAATT against USP39,inactive: 0.821
16,CGGCUGCUAUUUGAACUAUTT against SLC15A4,inactive: -0.29
17,GUAAGAAACAUCAUCCACATT against USP41,inactive: 0.808
18,GGAGCGAUAUCACAGCUUATT against RAB5B,inactive: 0.299
19,CUAUGUCAGUGGUCCUGAATT against RETSAT,active: -1.7
20,AAGCUAUUGUGAUCUCUGATT against ZBTB3,inactive: -0.0419
21,UGACCAUACUGGACGUGAATT against RDH16,inactive: 0.421
22,CCACUGCAACUGUAAUUCUTT against PROCA1,inactive: -0.502

row,Sequence,median seed-adjusted z-score
1,GGACCGCACUUUAUGGGAATT against SETD7,inactive: -0.0831
2,GGCUCUACGUGCAAGUCAATT against ETNK2,inactive: -0.74
3,GAACAUUGGACCAACUAAATT against FUCA1,inactive: -0.94
4,CAACCAUCCCAUGUCUGUUTT against NMNAT2,active: -1.58
5,AGAACAGCUUUACAGCACUTT against GPSM3,inactive: -0.641
6,GGAAAGCACUCACAGCUAATT against TNFRSF11A,inactive: -0.0833
7,GAGAAAACCUUCGAGCAGATT against NKX6-2,inactive: 0.101
8,GUACCUUCAUUAUGACGAATT against TNFRSF11B,inactive: 0.582
9,GGUUCUAAAUUAGUUCCAUTT against ALG5,inactive: 0.286
10,GGUUCGCAGUGAUAAAGGATT against HMGCR,inactive: 0.00174
11,GAAUUGUACCUACUUCUGUTT against PTPLA,inactive: 0.291
12,GAGAUUACAUAAACGGAGATT against PARP11,inactive: 0.192
13,CGACCUUUCUGGAAUAACATT against SERPINI2,inactive: -0.174
14,GAAUGAGCUAAAUAGUGUUTT against TARBP1,inactive: 0.491
15,CCUACUAUGUGCUACAGCUTT against MCHR1,inactive: -0.42
16,GCAGAAAGAAGUGAACCAATT against TXNL1,inactive: -0.554
17,CAGGUUCAGUGUGAGCAGATT against STC2,inactive: -0.00039
18,CUACAUCACCCGGAACAAATT against PES1,inactive: 0.44
19,CGGCAACUCUGAUUAUAGATT against GNPNAT1,inactive: 0.313

# — PubChem BioAssay AID1347426 (Functional Genomics Laboratory (NCATS/FGL), 2020)
